{"source": "PubChem BioAssay AID1259405, NCATS – 2018", "aim": "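Knock-downs that lift recombinant protein yield in hamster ovary cells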 (primary screen)", "cell system": "Chinese hamster CHO-K1 ovary cells with stable secreted eGFP expression", "knock-down reagent": "single siRNA against mouse genes, 0.8 pmol siRNA per well (2 µl of 400 nM stock)", "time to read-out": "3 days", "detection": "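Per-well intracellular GFP measured by laser scanning cytometry, plus viability from ATP luminescence, each relative to plate median of non-targeting control wells, in %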", "direction": "GFP, % of control: higher = more GFP per well, higher productivity; viability (ATP), % of control: higher = more viable cells (more ATP)", "active means": "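Called active when intracellular GFP, relative to negative control, is at or above 120%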", "note": "In all, the deposit lists about 50,000 reagents; this is a random part of them. About 4,000 of them (8%) count as active. 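Mouse siRNA library applied to hamster cells; one well for each siRNA.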 Reagents against one gene are numbered here."}
{"gene symbol":"Dph3","siRNA no.":1,"GFP, % of control":45.6,"viability (ATP), % of control":41.7,"Outcome":"inactive"}
{"gene symbol":"Dph3","siRNA no.":2,"GFP, % of control":63.4,"viability (ATP), % of control":55.9,"Outcome":"inactive"}
{"gene symbol":"Dph3","siRNA no.":3,"GFP, % of control":71.7,"viability (ATP), % of control":88.3,"Outcome":"inactive"}
{"gene symbol":"Ms4a10","siRNA no.":1,"GFP, % of control":62.4,"viability (ATP), % of control":67.1,"Outcome":"inactive"}
{"gene symbol":"Ms4a10","siRNA no.":2,"GFP, % of control":77.2,"viability (ATP), % of control":74.6,"Outcome":"inactive"}
{"gene symbol":"Ms4a10","siRNA no.":3,"GFP, % of control":26.2,"viability (ATP), % of control":30.5,"Outcome":"inactive"}
{"gene symbol":"Reep1","siRNA no.":1,"GFP, % of control":72.3,"viability (ATP), % of control":43.4,"Outcome":"inactive"}
{"gene symbol":"Reep1","siRNA no.":2,"GFP, % of control":78.5,"viability (ATP), % of control":76.5,"Outcome":"inactive"}
{"gene symbol":"Reep1","siRNA no.":3,"GFP, % of control":74.6,"viability (ATP), % of control":62.1,"Outcome":"inactive"}
{"gene symbol":"Cldnd1","siRNA no.":1,"GFP, % of control":95.9,"viability (ATP), % of control":79.9,"Outcome":"inactive"}
{"gene symbol":"Cldnd1","siRNA no.":2,"GFP, % of control":82.1,"viability (ATP), % of control":73.9,"Outcome":"inactive"}
{"gene symbol":"Cldnd1","siRNA no.":3,"GFP, % of control":75.5,"viability (ATP), % of control":53.1,"Outcome":"inactive"}
{"gene symbol":"Itga7","siRNA no.":1,"GFP, % of control":82.5,"viability (ATP), % of control":76.9,"Outcome":"inactive"}
{"gene symbol":"Itga7","siRNA no.":2,"GFP, % of control":64.6,"viability (ATP), % of control":63.7,"Outcome":"inactive"}
{"gene symbol":"Xbp1","siRNA no.":1,"GFP, % of control":124,"viability (ATP), % of control":85.9,"Outcome":"active"}
{"gene symbol":"Xbp1","siRNA no.":2,"GFP, % of control":57.3,"viability (ATP), % of control":63.4,"Outcome":"inactive"}
{"gene symbol":"Xbp1","siRNA no.":3,"GFP, % of control":95.4,"viability (ATP), % of control":88.2,"Outcome":"inactive"}
{"gene symbol":"Tmem128","siRNA no.":1,"GFP, % of control":60.3,"viability (ATP), % of control":96.5,"Outcome":"inactive"}
{"gene symbol":"Tmem128","siRNA no.":2,"GFP, % of control":56.8,"viability (ATP), % of control":74.5,"Outcome":"inactive"}
{"gene symbol":"Tmem128","siRNA no.":3,"GFP, % of control":68.6,"viability (ATP), % of control":69.3,"Outcome":"inactive"}
{"gene symbol":"Slc17a3","siRNA no.":1,"GFP, % of control":88.3,"viability (ATP), % of control":99.8,"Outcome":"inactive"}
{"gene symbol":"Slc17a3","siRNA no.":2,"GFP, % of control":64,"viability (ATP), % of control":66.4,"Outcome":"inactive"}
{"gene symbol":"Slc17a3","siRNA no.":3,"GFP, % of control":47,"viability (ATP), % of control":64.8,"Outcome":"inactive"}
{"gene symbol":"Dars2","siRNA no.":1,"GFP, % of control":61.3,"viability (ATP), % of control":78.9,"Outcome":"inactive"}
{"gene symbol":"Dars2","siRNA no.":2,"GFP, % of control":93.4,"viability (ATP), % of control":83.3,"Outcome":"inactive"}
{"gene symbol":"Dars2","siRNA no.":3,"GFP, % of control":79.7,"viability (ATP), % of control":65.8,"Outcome":"inactive"}
{"gene symbol":"Sbds","siRNA no.":1,"GFP, % of control":67.5,"viability (ATP), % of control":61,"Outcome":"inactive"}
{"gene symbol":"Sbds","siRNA no.":2,"GFP, % of control":105,"viability (ATP), % of control":106,"Outcome":"inactive"}
{"gene symbol":"Sbds","siRNA no.":3,"GFP, % of control":56.6,"viability (ATP), % of control":71.6,"Outcome":"inactive"}
{"gene symbol":"Txn2","siRNA no.":1,"GFP, % of control":33.6,"viability (ATP), % of control":42.7,"Outcome":"inactive"}
{"gene symbol":"Txn2","siRNA no.":2,"GFP, % of control":45.9,"viability (ATP), % of control":64.6,"Outcome":"inactive"}
{"gene symbol":"Txn2","siRNA no.":3,"GFP, % of control":87.8,"viability (ATP), % of control":69.6,"Outcome":"inactive"}
{"gene symbol":"Lctl","siRNA no.":1,"GFP, % of control":96.4,"viability (ATP), % of control":107,"Outcome":"inactive"}
{"gene symbol":"Lctl","siRNA no.":2,"GFP, % of control":45.7,"viability (ATP), % of control":85.8,"Outcome":"inactive"}
{"gene symbol":"Lctl","siRNA no.":3,"GFP, % of control":66.4,"viability (ATP), % of control":74,"Outcome":"inactive"}
{"gene symbol":"Grm6","siRNA no.":1,"GFP, % of control":54,"viability (ATP), % of control":60.9,"Outcome":"inactive"}
{"gene symbol":"Grm6","siRNA no.":2,"GFP, % of control":76,"viability (ATP), % of control":83.6,"Outcome":"inactive"}
{"gene symbol":"Grm6","siRNA no.":3,"GFP, % of control":71.6,"viability (ATP), % of control":54.6,"Outcome":"inactive"}
{"gene symbol":"Nudt15","siRNA no.":1,"GFP, % of control":144,"viability (ATP), % of control":79,"Outcome":"active"}
{"gene symbol":"Nudt15","siRNA no.":2,"GFP, % of control":89.9,"viability (ATP), % of control":87.6,"Outcome":"inactive"}
{"gene symbol":"Nudt15","siRNA no.":3,"GFP, % of control":68.1,"viability (ATP), % of control":73.7,"Outcome":"inactive"}

4 entries from above, reformatted.
gene symbol,siRNA no.,"GFP, % of control","viability (ATP), % of control",Outcome
Grm6,3,71.6,54.6,inactive
Nudt15,1,144,79,active
Nudt15,2,89.9,87.6,inactive
Nudt15,3,68.1,73.7,inactive
